{
  "sequences": {"note": "Amino acid sequences for entries named in this document (tags omitted). A change or cut given only in a name is not applied to a line headed by its entry.", "UniProt P19525": "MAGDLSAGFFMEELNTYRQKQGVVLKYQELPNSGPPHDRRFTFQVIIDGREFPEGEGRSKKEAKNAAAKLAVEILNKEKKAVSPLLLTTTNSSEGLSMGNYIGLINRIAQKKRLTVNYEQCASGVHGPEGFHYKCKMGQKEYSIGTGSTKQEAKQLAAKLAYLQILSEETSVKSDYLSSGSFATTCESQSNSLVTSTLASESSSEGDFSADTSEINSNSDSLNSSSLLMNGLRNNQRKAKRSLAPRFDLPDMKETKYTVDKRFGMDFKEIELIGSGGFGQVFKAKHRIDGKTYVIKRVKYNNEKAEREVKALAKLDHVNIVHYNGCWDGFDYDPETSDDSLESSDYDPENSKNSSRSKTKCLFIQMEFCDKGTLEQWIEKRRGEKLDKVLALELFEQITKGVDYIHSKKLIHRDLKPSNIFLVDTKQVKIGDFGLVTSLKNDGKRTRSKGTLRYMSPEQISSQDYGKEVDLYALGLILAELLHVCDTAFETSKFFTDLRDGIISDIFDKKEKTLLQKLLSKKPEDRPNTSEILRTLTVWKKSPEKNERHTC"},
  "source": "paper PMC5773696",
  "molecules": {"B1": {"name": "Flag-TRBP from the stable HeLa Tet off line (Flag TRBP/pTRE2pur), cells without stress (protein, UniProt Q15633-2 1-345)", "chain": "MLAANPGKTPISLLQEYGTRIGKTPVYDLLKAEGQAHQPNFTFRVTVGDTSCTGQGPSKKAAKHKAAEVALKHLKGGSMLEPALEDSSSFSPLDSSLPEDIPVFTAAAAATPVPSVVLTRSPPMELQPPVSPQQSECNPVGALQELVVQKGWRLPEYTVTQESGPAHRKEFTMTCRVERFIEIGSGTSKKLAKRNAAAKMLLRVHTVPLDARDGNEVEPDDDHFSIGVGSRLDGLRNRGPGCTWDSLRNSVGEKILSLRSCSLGSLGALGPACCRVLSELSEEQAFHVSYLDIEELSLSGLCQCLVELSTQPATVCHGSATTREAARGEAARRALQYLKIMAGSK"}},
  "key": {"[1]": {"target": "T1, wt TRBP, GAL4 DNA-binding domain fusion (wt TRBP/pGBKT7) (UniProt Q15633)", "T1 sequence": "B1 chain", "test": "two-hybrid; K296R PKR as GAL4 activation domain fusion (pGAD424), TRBP forms as GAL4 DNA-binding domain fusions (pGBKT7); AH109 yeast; growth of serial dilutions on medium lacking histidine, tryptophan and leucine with 10 mM 3-AT, 30 °C, 3 days"}, "[2]": {"target": "T2, AAAA TRBP (phospho-defective point mutant), yeast two-hybrid fusion (AAAA TRBP/pGBKT7; AAAA TRBP/pGADT7) (UniProt Q15633)", "T2 sequence": "B1 chain with S121A, S131A, S262A, S265A", "test": "two-hybrid; K296R PKR as GAL4 activation domain fusion (pGAD424), TRBP forms as GAL4 DNA-binding domain fusions (pGBKT7); AH109 yeast; growth of serial dilutions on medium lacking histidine, tryptophan and leucine with 10 mM 3-AT, 30 °C, 3 days"}, "[3]": {"target": "T3, DDDD TRBP (phospho-mimic point mutant), yeast two-hybrid fusion (DDDD TRBP/pGBKT7; DDDD TRBP/pGADT7) (UniProt Q15633)", "T3 sequence": "B1 chain with S121D, S131D, S262D, S265D", "test": "two-hybrid; K296R PKR as GAL4 activation domain fusion (pGAD424), TRBP forms as GAL4 DNA-binding domain fusions (pGBKT7); AH109 yeast; growth of serial dilutions on medium lacking histidine, tryptophan and leucine with 10 mM 3-AT, 30 °C, 3 days"}, "[4]": {"target": "T4, myc TRBP AAAA (myc TRBP AAAA/pcDNA 3.1-), phospho-defective point mutant (UniProt Q15633)", "T4 sequence": "B1 chain with S121A, S131A, S262A, S265A", "test": "co-IP; HeLa cells co-transfected with Flag K296R PKR and myc TRBP forms, harvested after 24 h; myc TRBP precipitated with anti-c-myc agarose overnight at 4 °C in 150 mM NaCl, 20 mM Tris-HCl pH 7.5, 1 mM EDTA, 1% Triton X-100, 20% glycerol; blot with anti-Flag"}, "[5]": {"target": "T5, myc wt TRBP (myc wt TRBP/pcDNA 3.1-) (UniProt Q15633)", "T5 sequence": "B1 chain", "test": "co-IP; HeLa cells co-transfected with Flag K296R PKR and myc TRBP forms, harvested after 24 h; myc TRBP precipitated with anti-c-myc agarose overnight at 4 °C in 150 mM NaCl, 20 mM Tris-HCl pH 7.5, 1 mM EDTA, 1% Triton X-100, 20% glycerol; blot with anti-Flag"}, "[6]": {"target": "T6, myc TRBP DDDD (myc TRBP DDDD/pcDNA 3.1-), phospho-mimic point mutant (UniProt Q15633)", "T6 sequence": "B1 chain with S121D, S131D, S262D, S265D", "test": "co-IP; HeLa cells co-transfected with Flag K296R PKR and myc TRBP forms, harvested after 24 h; myc TRBP precipitated with anti-c-myc agarose overnight at 4 °C in 150 mM NaCl, 20 mM Tris-HCl pH 7.5, 1 mM EDTA, 1% Triton X-100, 20% glycerol; blot with anti-Flag"}, "[7]": {"target": "recombinant hexahistidine-tagged PKR (His-PKR) (UniProt P19525)", "test": "pull-down; His-PKR immobilised on Ni2+-agarose; 25 ug extract of Flag TRBP HeLa Tet off cells, untreated or treated with 25 uM sodium arsenite for 2, 4, 8 and 12 h, with phosphatase inhibitor; 20 mM Tris-HCl pH 7.5, 150 mM NaCl, 1 mM EDTA, 1 mM DTT, 1% Triton-X 100, 2% glycerol; 4 °C, 1 h; blot with anti-Flag; only the target purified"}},
  "note": "Changes are numbered by the printed parent chain. Results are given in words; binding and its absence hold for the method and conditions named. For some of these results: Binding seen in cells or lysates may run through a third protein. Some binding calls cover weakened binding; strength is not graded here. Where a sequence is shown, tags or fusion partners need not be part of it.",
  "data": [
    {"molecule": "K296R PKR, GAL4 activation domain fusion (K296R PKR/pGAD424) (from UniProt P19525 1-551)", "values": [
      {"measurement": "binding", "setting": "[1]", "result": "binds"},
      {"measurement": "binding", "setting": "[2]", "result": "binds"},
      {"measurement": "binding", "setting": "[3]", "result": "binds"}
    ]},
    {"molecule": "Flag K296R PKR (Flag K296R PKR/pcDNA 3.1-) (from UniProt P19525 1-551)", "values": [
      {"measurement": "binding", "setting": "[4]", "result": "binds"},
      {"measurement": "binding", "setting": "[5]", "result": "binds"},
      {"measurement": "binding", "setting": "[6]", "result": "binds"}
    ]},
    {"molecule": "B1", "values": [
      {"measurement": "binding", "setting": "[7]", "result": "binds weakly"}
    ]}
  ]
}
